In US20260266848A1, “COMPOSITIONS AND METHODS FOR DIAGNOSING AND TREATING DYSTONIA” (Duke University, priority 2023, published 2026):

System: DYT1 patient plasma
Experiment: Whole plasma metabolomics (Biocrates MxP Quant 500 Kit), DYT1 vs Healthy Controls
Settings: DYT1-Dystonia vs Healthy Control

N[C@@H](Cc1ccc(O)cc1)C(=O)O [Tyr_Aminoacids]
-LogP: 1.856
